Measured values published in paper PMC6794296.

Biological target: T1, mCherry-tagged phosphatidylinositol 4-phosphate 5-kinase homolog (PIPKH) (human) (UniProt Q5T9C9)
T1 sequence: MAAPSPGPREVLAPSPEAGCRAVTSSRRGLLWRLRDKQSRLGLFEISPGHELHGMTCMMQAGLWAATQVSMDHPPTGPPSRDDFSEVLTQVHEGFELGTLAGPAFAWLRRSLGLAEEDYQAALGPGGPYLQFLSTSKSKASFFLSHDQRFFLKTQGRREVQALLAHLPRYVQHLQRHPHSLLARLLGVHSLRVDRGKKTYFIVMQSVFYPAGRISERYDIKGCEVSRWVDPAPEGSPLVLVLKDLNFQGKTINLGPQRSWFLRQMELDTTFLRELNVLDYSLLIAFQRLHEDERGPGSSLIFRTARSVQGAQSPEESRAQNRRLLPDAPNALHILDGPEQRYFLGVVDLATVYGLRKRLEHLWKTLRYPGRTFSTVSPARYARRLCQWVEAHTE
Experiment: FRET or BRET; FLIM-FRET in CHO cells transiently co-transfected; donor GFP or YFP on PIP5K or Rab protein, acceptor mCherry on PIPKH; lifetime of the donor with and without the acceptor

binding: binds
Substance: GFP-PIP5Kγ87 (from UniProt O60331-4) (enzyme)

Results are given in words; binding and its absence hold for the method and conditions named. Binding seen in cells or lysates may run through a third protein. Binding calls can cover weak binding; strength is not graded here. Tags and fused reporters may be left off the sequences shown.
